# Laboratory results: PubChem BioAssay AID493246 (Drosophila RNAi Screening Center, 2011)
# Assay: 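Genes fly cells need to grow and stay alive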 (primary screen)
# Cells: Drosophila Kc and S2R+ cells
# Knock-down reagent: long dsRNA against Drosophila genes
# Measurement: 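Cell number per well after knock-down, printed as raw plate values; calls were based on per-plate z-scores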
# Scale: Kc cell number and S2R+ cell number: higher = more cells remaining
# Hit rule: 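Counted as a hit if cell number falls by a z-score of at least 3 within its plate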
# In all, the deposit lists about 21,000 reagents; shown is a random part of those that have a named target and a result. Over the whole deposit, 429 (2%) got an active call. 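Values are raw and not normalised between plates; calls rest on per-plate z-scores that were not deposited.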 Entries without a mark were called inactive. Names joined by + are all predicted targets of the reagent. Reagent sequences are not shown. The record does not give: the amount of reagent, the time to read-out.
gene knocked down,dsRNA,"Kc cell number, rep 1","Kc cell number, rep 2","S2R+ cell number, rep 1","S2R+ cell number, rep 2"
Spn31A (GeneID 34339),DRSC02780,1.47e6,1.50e6,1.27e6,1.37e6
sn (GeneID 31717),DRSC18834,1.49e6,1.47e6,1.02e6,1.12e6
Cpr65Aw (GeneID 38706),DRSC08794,1.56e6,1.45e6,9.82e5,1.21e6
CG1387 (GeneID 31770),DRSC17904,5.44e5,,8.66e5,
CG5592 (GeneID 38662),DRSC10524,1.70e6,1.55e6,1.04e6,1.15e6
Tip60 (GeneID 31362),DRSC18661,4.96e5,,7.94e5,
TwdlK (GeneID 43205),DRSC16045,1.46e6,1.50e6,6.45e5,7.90e5
CG13965 (GeneID 35280),DRSC02307,1.57e6,1.67e6,1.24e6,2.87e5
CG10344 (GeneID 37565),DRSC04066,1.64e6,1.67e6,1.29e6,1.46e6
Atet (GeneID 33636),DRSC00263,1.62e6,1.50e6,1.09e6,1.28e6
Gr59e (GeneID 37725),DRSC04276,1.46e6,1.54e6,1.32e6,1.32e6
CG4928 (GeneID 32682),DRSC19342,1.45e6,1.55e6,1.02e6,1.13e6
CG15449 (GeneID 33079),DRSC20521,1.66e6,1.66e6,1.14e6,1.22e6
RpS16 (GeneID 37580),DRSC04442,1.14e6 (active),1.20e6,9.90e5,1.07e6
CG8300 (GeneID 31658),DRSC18426,3.16e5,,6.66e5,
CG14448 (GeneID 40497),DRSC11705,1.41e6,1.56e6,1.19e6,1.34e6
PIG-H (GeneID 40944),DRSC14856,1.59e6,1.78e6,1.37e6,1.47e6
CG13170 (GeneID 36325),DRSC06298,1.59e6,1.53e6,1.02e6,1.06e6
CG5758 (GeneID 35083),DRSC02889,1.49e6,1.57e6,8.98e5,1.02e6
CG5758 (GeneID 35083),DRSC02890,1.63e6,1.68e6,1.27e6,1.44e6
sv (GeneID 43825),DRSC17221,1.53e6,1.47e6,1.14e6,1.18e6
numb (GeneID 34263),DRSC03584,1.26e6,1.32e6,1.25e6,1.18e6
Ccdc58 + CG34116,DRSC10105,1.43e6,1.44e6,1.32e6,1.36e6
knrl (GeneID 40285),DRSC11892,1.49e6,1.56e6,1.30e6,1.35e6

The list goes on, starting with the last 4 of the part before.
gene knocked down,dsRNA,"Kc cell number, rep 1","Kc cell number, rep 2","S2R+ cell number, rep 1","S2R+ cell number, rep 2"
sv (GeneID 43825),DRSC17221,1.53e6,1.47e6,1.14e6,1.18e6
numb (GeneID 34263),DRSC03584,1.26e6,1.32e6,1.25e6,1.18e6
Ccdc58 + CG34116,DRSC10105,1.43e6,1.44e6,1.32e6,1.36e6
knrl (GeneID 40285),DRSC11892,1.49e6,1.56e6,1.30e6,1.35e6
Ant2 (GeneID 32008),DRSC19330,5.43e5,,7.43e5,
Rab9Db + Rab9D + Rab9E,DRSC17656,1.15e6,1.39e6,1.12e6,1.12e6
CG5757 (GeneID 37062),DRSC06951,1.41e6,1.44e6,1.16e6,1.21e6
Optix (GeneID 44108),DRSC05078,1.35e6,1.45e6,1.10e6,1.22e6
Optix (GeneID 44108),DRSC07484,1.41e6,1.46e6,1.13e6,1.09e6
CG44001 + CG33995,DRSC00853,1.53e6,1.54e6,1.11e6,1.26e6
CG44001 + CG33995,DRSC02898,1.36e6,1.60e6,3.54e5,1.49e5
piwi (GeneID 34521),DRSC03592,1.34e6,1.39e6,1.21e6,1.21e6
CG34301 (GeneID 5740866),DRSC12704,1.41e6,1.46e6,1.04e6,1.24e6
Ir64a (GeneID 38616),DRSC09759,1.30e6,1.40e6,1.14e6,1.12e6
Ir64a (GeneID 38616),DRSC09760,1.40e6,1.23e6,1.21e6,1.15e6
thw (GeneID 40868),DRSC12552,1.59e6,1.73e6,1.29e6,1.47e6
CG3679 (GeneID 32591),DRSC19346,6.20e5,,8.92e5,
CG12439 (GeneID 34234),DRSC02168,1.50e6,1.60e6,1.24e6,1.33e6
Hs3st-A (GeneID 37161),DRSC06507,1.01e6,1.16e6,6.56e5,6.89e5
Hs3st-A (GeneID 37161),DRSC06508,1.65e6,1.63e6,1.22e6,1.38e6
Hs3st-A (GeneID 37161),DRSC06509,1.63e6,1.72e6,1.21e6,1.51e6
